From paper PMC7862700 come the findings set out here.

Some of the results follow. Construct or isoform of the protein are uncertain.

For the assay, the target named is T1, ELF2 (UniProt Q15723).
T1 sequence: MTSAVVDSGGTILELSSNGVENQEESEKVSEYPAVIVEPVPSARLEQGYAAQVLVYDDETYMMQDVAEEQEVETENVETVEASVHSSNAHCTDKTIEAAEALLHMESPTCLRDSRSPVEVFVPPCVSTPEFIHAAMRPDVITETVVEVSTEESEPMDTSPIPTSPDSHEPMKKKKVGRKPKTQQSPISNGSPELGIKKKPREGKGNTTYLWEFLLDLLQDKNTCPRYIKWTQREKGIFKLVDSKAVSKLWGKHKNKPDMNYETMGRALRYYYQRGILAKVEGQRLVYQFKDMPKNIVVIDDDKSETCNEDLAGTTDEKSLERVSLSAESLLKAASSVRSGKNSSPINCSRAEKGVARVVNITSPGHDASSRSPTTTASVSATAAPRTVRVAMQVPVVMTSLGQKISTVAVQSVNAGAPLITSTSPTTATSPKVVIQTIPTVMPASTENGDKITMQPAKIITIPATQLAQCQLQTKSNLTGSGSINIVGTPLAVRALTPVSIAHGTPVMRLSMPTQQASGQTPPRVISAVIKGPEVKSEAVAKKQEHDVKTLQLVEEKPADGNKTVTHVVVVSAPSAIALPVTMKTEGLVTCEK
As to the kind of experiment: DAPPL (digital affinity profiling via proximity ligation, sequencing). The following applies: 10 mM Tris-HCl pH 7.5, 50 mM NaCl, 1 mM DTT, 4% glycerol, room temperature, 30 min; GST-TFs on glutathione beads, 16-mer random dsDNA library, 0.1% …; high values mean tight binding; double strand, one strand shown; scale: fold enrichment (6-mer frequency, TF over GST control).
For the sequence TCACTA, the binding signal was found to be 1.11.

GTCTAT showed a binding signal of 1.01.

TGGGCA gave a binding signal of 0.931.

For the sequence CGTTGT, the binding signal turned out to be 0.937.

For the sequence GACCGG, the binding signal came to 1.29.

CATGCA came in with a binding signal of 1.03.

Sequence CTGTGT had a binding signal of 0.787.

Sequence GTGTTA returned a binding signal of 0.976.

With AGTGGT, the binding signal was determined as 1.05.

In turn, TAAAAA showed a binding signal of 1.35.

CACCCT registered a binding signal of 1.09.

Regarding ACTGGT, the binding signal came to 1.02.

Take ATAGAT: the binding signal came out at 1.13.

Sequence GTACCA returned a binding signal of 0.981.

Consider GCACTA, for which the binding signal is 1.13.

As to TCACAA, the binding signal was 1.06.

In the case of ACGTAA, the binding signal worked out at 1.05.

On to ACCACA, for which the binding signal was 1.02.

CCGCGC gave a binding signal of 1.14.

In the case of GCCCAA, the binding signal stood at 1.03.

CCCCTG had a binding signal of 1.17.

In the case of TATGAG, the binding signal was determined as 0.951.

For CGTACC, the binding signal came out at 1.19.

Sequence CCCGGT showed a binding signal of 1.06.

For the sequence GATAGC, the binding signal was found to be 1.05.

Sequence TCTCGT returned a binding signal of 1.13.

In the case of GCGGAA, the binding signal was determined as 2.09.

In the case of GAAAGC, the binding signal was found to be 0.877.

Turning to TCGCGG, the binding signal turned out to be 1.02.

GAAAAT came in with a binding signal of 1.17.

TCGAAC had a binding signal of 0.995.

Consider TACAGC, for which the binding signal was 1.04.

Consider CTAAAT, for which the binding signal turned out to be 1.31.

The sequence ACTACA had a binding signal of 1.16.

For CTGATG, the binding signal amounted to 1.54.

Regarding GACCCA, the binding signal is 0.851.

In turn, GTTATA showed a binding signal of 0.991.

TTAAGG registered a binding signal of 1.17.

CGTACG registered a binding signal of 1.01.

AATTCT: the binding signal stood at 1.28.
